These are yes or no findings as the source states them, for the method shown. Some binding calls cover weakened binding; strength is not graded here. Sequences can lack the tags named with a protein.
How the values were obtained:
[1] = target: Myc-tagged LRP6N (LRP6N-Myc), extracellular portion of LRP6 (UniProt O75581); experiment: IP/western, LRP6N-Myc with V5-tagged IGFBP
[2] = target: Myc-tagged LRP6N (LRP6N-Myc), extracellular portion of LRP6 (UniProt O75581); experiment: IP/western
[3] = target: LRP6 E1-2/L mutant (soluble, Myc-tagged LRP6 deletion mutant) (UniProt O75581); experiment: IP/western with LRP6 deletion mutants
[4] = target: Myc-tagged LRP6N (LRP6N-Myc), extracellular portion of LRP6 (UniProt O75581); experiment: IP/western, LRP6N-Myc with IGFBP-4-V5
[5] = target: LRP6 E1-2/L mutant (soluble, Myc-tagged LRP6 deletion mutant) (UniProt O75581); experiment: IP/western, Myc-tagged LRP6 mutant with IGFBP-4-V5

Sequences of proteins named here, by UniProt entry; tags and fusion partners are left off. A change or cut given only in a name is not applied to a line headed by its entry. A line that says so, or that is headed by a name, gives the form on record, which may keep a tag or linker. Residues count along the entry.
Myc-tagged LRP6N (LRP6N-Myc), extracellular portion of LRP6 (O75581, residues 20-1370): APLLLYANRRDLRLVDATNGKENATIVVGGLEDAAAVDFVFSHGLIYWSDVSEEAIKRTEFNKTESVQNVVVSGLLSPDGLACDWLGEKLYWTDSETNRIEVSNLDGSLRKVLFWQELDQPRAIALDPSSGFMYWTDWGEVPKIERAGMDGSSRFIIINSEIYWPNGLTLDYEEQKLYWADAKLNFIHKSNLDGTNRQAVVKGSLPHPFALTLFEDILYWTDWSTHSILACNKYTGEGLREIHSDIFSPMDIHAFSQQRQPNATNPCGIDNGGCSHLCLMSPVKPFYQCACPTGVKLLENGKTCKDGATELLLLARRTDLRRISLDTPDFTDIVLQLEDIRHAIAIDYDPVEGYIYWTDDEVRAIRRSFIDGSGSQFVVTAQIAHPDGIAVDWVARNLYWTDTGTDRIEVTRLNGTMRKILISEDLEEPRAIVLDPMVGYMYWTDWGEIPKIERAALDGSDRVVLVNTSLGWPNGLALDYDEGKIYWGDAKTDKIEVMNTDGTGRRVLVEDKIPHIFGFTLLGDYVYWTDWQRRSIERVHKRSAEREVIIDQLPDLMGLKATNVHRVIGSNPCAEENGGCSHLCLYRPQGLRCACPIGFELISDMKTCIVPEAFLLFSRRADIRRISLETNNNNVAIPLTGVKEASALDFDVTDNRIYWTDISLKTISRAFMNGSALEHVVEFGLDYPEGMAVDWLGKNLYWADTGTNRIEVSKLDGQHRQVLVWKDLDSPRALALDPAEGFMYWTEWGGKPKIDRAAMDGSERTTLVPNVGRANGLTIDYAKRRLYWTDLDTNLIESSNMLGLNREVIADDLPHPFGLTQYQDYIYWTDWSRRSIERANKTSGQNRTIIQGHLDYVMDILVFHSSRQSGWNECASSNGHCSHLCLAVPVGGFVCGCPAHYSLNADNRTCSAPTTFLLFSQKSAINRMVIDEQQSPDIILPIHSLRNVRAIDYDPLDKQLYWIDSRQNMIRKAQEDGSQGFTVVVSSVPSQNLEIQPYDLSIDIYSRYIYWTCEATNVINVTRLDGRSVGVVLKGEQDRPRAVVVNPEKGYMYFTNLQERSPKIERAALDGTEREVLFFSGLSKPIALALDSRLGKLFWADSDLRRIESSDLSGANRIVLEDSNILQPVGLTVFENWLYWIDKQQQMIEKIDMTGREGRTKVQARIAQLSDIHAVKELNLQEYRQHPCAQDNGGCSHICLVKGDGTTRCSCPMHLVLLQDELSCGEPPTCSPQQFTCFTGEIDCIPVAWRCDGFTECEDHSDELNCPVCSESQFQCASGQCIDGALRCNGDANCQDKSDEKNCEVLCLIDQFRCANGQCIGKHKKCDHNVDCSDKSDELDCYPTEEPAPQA
LRP6 E1-2/L mutant (soluble, Myc-tagged LRP6 deletion mutant) (O75581, form named): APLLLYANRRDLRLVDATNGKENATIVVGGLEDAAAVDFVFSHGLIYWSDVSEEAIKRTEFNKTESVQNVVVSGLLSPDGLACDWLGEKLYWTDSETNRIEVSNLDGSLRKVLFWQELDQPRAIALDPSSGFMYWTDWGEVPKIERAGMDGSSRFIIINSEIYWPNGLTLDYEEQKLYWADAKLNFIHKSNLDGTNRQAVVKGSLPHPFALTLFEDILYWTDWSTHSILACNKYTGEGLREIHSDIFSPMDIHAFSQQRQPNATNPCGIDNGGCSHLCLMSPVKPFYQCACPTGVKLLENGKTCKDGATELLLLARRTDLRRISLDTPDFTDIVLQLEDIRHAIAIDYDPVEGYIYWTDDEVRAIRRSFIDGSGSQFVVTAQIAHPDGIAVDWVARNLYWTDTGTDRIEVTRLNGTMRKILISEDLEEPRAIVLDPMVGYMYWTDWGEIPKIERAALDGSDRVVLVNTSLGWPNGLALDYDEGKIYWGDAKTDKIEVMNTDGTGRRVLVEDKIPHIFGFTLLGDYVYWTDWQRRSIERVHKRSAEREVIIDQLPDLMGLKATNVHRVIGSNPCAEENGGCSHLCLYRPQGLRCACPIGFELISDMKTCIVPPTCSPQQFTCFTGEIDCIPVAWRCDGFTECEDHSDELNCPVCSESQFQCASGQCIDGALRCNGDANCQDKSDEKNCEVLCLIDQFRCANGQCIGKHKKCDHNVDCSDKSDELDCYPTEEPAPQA

Binder	binding [1]	binding [2]	binding [3]	binding [4]	binding [5]
V5-tagged IGFBP4 (IGFBP-4-V5) (protein, mouse, UniProt P47879 22-254, looked up, not shown: small tags and cut ends) DEAIHCPPCSEEKLARCRPPVGCEELVREPGCGCCATCALGLGMPCGVYTPRCGSGMRCYPPRGVEKPLRTLMHGQGVCTELSEIEAIQESLQTSDKDESEHPNNSFNPCSAHDHRCLQKHMAKIRDRSKMKIVGTPREEPRPVPQGSCQSELHRALERLAASQSRTHEDLFIIPIPNCDRNGNFHPKQCHPALDGQRGKCWCVDRKTGVKLPGGLEPKGELDCHQLADSFQE	binds	binds	binds	binds	binds
IGFBP-1 (V5-tagged) (protein, mouse, UniProt P47876 26-272, looked up, not shown: small tags and cut ends) APQPWHCAPCTAERLGLCPPVPASCPEISRPAGCGCCPTCALPMGAACGVATARCAQGLSCRALPGEPRPLHALTRGQGACVPEPAAPATSTLFSSQHEEAKAAVVSADELSESPEMTEEQLLDSFHLMAPSREDQPILWNAISTYSSMRAREIADLKKWKEPCQRELYKVLERLAAAQQKAGDEIYKFYLPNCNKNGFYHSKQCETSLDGEAGLCWCVYPWSGKKIPGSLETRGDPNCHQYFNVHN	binds	binds			

Further lines, results first:

binding [1]	binding [2]	binding [3]	binding [4]	binding [5]	Binder
binds	binds				IGFBP-2 (V5-tagged) (protein, mouse, UniProt P47877 35-305, looked up, not shown: small tags and cut ends) EVLFRCPPCTPERLAACGPPPDAPCAELVREPGCGCCSVCARQEGEACGVYIPRCAQTLRCYPNPGSELPLKALVTGAGTCEKRRVGTTPQQVADSDDDHSEGGLVENHVDGTMNMLGGGSSAGRKPLKSGMKELAVFREKVNEQHRQMGKGAKHLSLEEPKKLRPPPARTPCQQELDQVLERISTMRLPDDRGPLEHLYSLHIPNCDKHGRYNLKQCKMSLNGQRGECWCVNPNTGKPIQGAPTIRGDPECHLFYNEQQETGGAHAQSVQ
binds	binds				IGFBP-6 (V5-tagged) (protein, mouse, UniProt P47880 26-238, looked up, not shown: small tags and cut ends) ALAGCPGCGAGMQTGCRGGCVEEEDAGSPADGCTEAGGCLRREGQPCGVYSPKCAPGLQCQPRENEEAPLRALLIGQGRCQRARGPSEETTKESKPQGGASRSRDTNHRDRQKNPRTSAAPIRPNPVQDSEMGPCRRHLDSVLQQLQTEVFRGGARGLYVPNCDLRGFYRKQQCRSSQGNRRGPCWCVDPMGQPLPVSPDGQGSTQCSARSSG

From patent publication US20110243899A1 (NATIONAL UNIVERSITY CORPORATION CHIBA UNIVERSITY, published 2011)
